# Measurements as given in paper PMC6918085.
# Protein sequences, listed by entry. Tags and fused reporters are not part of them. Residues count along the entry.
# UniProt P71451, residues 35-297: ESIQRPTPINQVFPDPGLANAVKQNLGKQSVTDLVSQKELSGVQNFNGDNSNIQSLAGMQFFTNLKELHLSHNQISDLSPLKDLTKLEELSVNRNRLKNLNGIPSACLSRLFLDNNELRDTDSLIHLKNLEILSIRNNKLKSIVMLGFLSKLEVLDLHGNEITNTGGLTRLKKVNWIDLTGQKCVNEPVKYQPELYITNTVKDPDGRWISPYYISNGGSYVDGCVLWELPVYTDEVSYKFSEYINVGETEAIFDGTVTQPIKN
# UniProt P30153: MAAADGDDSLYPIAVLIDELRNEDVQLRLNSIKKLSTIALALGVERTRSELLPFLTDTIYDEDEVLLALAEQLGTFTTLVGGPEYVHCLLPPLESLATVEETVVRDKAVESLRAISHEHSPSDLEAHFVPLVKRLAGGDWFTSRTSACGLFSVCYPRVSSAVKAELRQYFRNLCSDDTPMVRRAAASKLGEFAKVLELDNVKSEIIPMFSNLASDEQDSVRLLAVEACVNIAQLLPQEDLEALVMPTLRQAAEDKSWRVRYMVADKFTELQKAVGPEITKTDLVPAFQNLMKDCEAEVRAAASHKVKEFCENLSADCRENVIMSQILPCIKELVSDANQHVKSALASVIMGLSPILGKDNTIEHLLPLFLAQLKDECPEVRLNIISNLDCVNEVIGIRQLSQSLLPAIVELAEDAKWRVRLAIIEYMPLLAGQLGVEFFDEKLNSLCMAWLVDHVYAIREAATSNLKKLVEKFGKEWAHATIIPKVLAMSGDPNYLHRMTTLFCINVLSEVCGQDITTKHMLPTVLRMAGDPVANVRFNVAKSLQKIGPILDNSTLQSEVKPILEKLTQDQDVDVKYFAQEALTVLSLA
# UniProt Q9BYV6: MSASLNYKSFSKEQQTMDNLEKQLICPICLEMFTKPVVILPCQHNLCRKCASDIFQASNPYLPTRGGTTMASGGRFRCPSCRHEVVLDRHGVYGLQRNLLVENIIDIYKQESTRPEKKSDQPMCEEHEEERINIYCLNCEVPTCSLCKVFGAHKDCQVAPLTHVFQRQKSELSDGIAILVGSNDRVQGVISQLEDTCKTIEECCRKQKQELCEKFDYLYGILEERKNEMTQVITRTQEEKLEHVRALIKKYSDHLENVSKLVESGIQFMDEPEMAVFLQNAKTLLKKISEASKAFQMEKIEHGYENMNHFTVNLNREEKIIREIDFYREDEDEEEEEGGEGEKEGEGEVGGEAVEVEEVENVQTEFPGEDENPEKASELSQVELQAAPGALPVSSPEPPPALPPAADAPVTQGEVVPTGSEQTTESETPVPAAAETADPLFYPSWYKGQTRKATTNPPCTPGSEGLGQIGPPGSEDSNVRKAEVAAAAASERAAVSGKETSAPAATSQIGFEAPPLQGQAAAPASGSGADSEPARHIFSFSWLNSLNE
# UniProt Q93034: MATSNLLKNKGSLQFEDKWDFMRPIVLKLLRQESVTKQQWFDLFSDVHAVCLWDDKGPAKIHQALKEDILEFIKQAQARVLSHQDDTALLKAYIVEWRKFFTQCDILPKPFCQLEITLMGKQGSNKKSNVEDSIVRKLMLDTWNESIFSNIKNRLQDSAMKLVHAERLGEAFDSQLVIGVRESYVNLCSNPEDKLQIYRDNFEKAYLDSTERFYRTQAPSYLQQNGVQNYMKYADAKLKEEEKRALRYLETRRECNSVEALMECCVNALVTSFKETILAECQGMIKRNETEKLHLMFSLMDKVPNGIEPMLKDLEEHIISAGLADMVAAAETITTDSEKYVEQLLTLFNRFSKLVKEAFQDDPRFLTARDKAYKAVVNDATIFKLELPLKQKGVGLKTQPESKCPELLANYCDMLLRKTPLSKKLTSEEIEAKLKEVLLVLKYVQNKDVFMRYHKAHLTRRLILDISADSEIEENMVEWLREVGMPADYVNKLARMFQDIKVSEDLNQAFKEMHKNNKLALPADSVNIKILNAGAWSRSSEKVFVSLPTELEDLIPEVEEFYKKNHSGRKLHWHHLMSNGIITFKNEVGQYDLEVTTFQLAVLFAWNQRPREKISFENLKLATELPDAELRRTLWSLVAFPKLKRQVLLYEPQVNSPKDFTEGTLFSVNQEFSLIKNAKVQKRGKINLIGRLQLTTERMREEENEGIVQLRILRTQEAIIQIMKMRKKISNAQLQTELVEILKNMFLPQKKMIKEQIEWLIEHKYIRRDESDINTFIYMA
# No constants are given. Whether binding was seen depends on the method and setting. In cells and extracts the contact can be indirect. Some entries that bind do so weakly or less than the wild type. Tags and fused reporters may be left off the sequences shown.
# B1: PPP2R2A fused to the Nlc1 fragment of NanoLuc (protein, UniProt P63151 1-447)
# chain: MAGAGGGNDIQWCFSQVKGAVDDDVAEADIISTVEFNHSGELLATGDKGGRVVIFQQEQENKIQSHSRGEYNVYSTFQSHEPEFDYLKSLEIEEKINKIRWLPQKNAAQFLLSTNDKTIKLWKISERDKRPEGYNLKEEDGRYRDPTTVTTLRVPVFRPMDLMVEASPRRIFANAHTYHINSISINSDYETYLSADDLRINLWHLEITDRSFNIVDIKPANMEELTEVITAAEFHPNSCNTFVYSSSKGTIRLCDMRASALCDRHSKLFEEPEDPSNRSFFSEIISSISDVKFSHSGRYMMTRDYLSVKIWDLNMENRPVETYQVHEYLRSKLCSLYENDCIFDKFECCWNGSDSVVMTGSYNNFFRMFDRNTKRDITLEASRENNKPRTVLKPRKVCASGKRKKDEISVDSLDFNKKILHTAWHPKENIIAVATTNNLYIFQDKVN
# B2: HA-tagged S100A9 (protein, UniProt P06702 1-114)
# chain: MTCKMSQLERNIETIINTFHQYSVKLGHPDTLNQGEFKELVRKDLQNFLKKENKNEKVIEHIMEDLDTNADKQLSFEEFIMLMARLTWASHEKMHEGDEGPGHHHKPGLGEGTP
# What was measured:
# [1] = biological target: InlC fused to the Nlc2 fragment of NanoLuc (Listeria monocytogenes) (UniProt P71451); assay: split reporter; NPCA screen in HEK-293T cells: 67 human ORFs fused to Nlc1 (pSNL-N1) against InlC, InlC-K^all or InlC-K^224 fused to Nlc2 (pSNL-C2); luciferase activity 24 h after transfection
# [2] = biological target: humanized FLAG-tagged InlC (Listeria monocytogenes) (UniProt P71451); assay: co-IP; HeLa cells cotransfected with FLAG-tagged InlC forms and HA-tagged S100A9; FLAG lysis buffer (20 mM Tris-HCl pH 8.0, 1% Triton, 150 mM NaCl); anti-FLAG magnetic beads overnight at 4°C; eluted with 3x FLAG peptide; blot with anti-InlC and anti-HA
Molecule,binding [1],binding [2]
PPP2R1A fused to the Nlc1 fragment of NanoLuc (from UniProt P30153 1-589),binds,
TRIM55 fused to the Nlc1 fragment of NanoLuc (from UniProt Q9BYV6 1-548),binds,
cullin-5 fused to the Nlc1 fragment of NanoLuc (from UniProt Q93034 1-780),binds,
B1,binds,
B2,,binds
